Not every detail of the peptide structures is certain; ends, links or a residue may be inferred. Where a SMILES comes first, the peptide text is derived from it. The star is where a group is joined. X2 = CC(=O)OCCSSCCOC(=O)*
Assays:
[1] = Turbidity measurement of phase separation (coacervation) at various pH; format: physicochemical
Source text: The phase separation behavior of HBpep-K and HBpep-SR peptides at various pH was monitored turbidity measurements using a UV-Vis spectrometer (UV-2501PC, Shimadzu, Japan). The absorbance at 600 nm (A600) was used to calculate the relative turbidity (Lim, Z.W. et al., Bioconjugate Chem., 2018, 29, 2176) as: […]

HepG2 cells = test: Luciferase-encoding mRNA transfection; format: cell-based; conditions: optimal peptide concentration, HepG2, versus PEI, lipofectamine 2000 and 3000
[2] = In vitro FITC-insulin release in the presence of DTT; conditions: 10 mM DTT versus absence of DTT

CC(=O)OCCSSCCOC(=O)NCCCC[C@H](NC(=O)[C@H](Cc1ccc(O)cc1)NC(=O)[C@@H]1CCCN1C(=O)CNC(=O)[C@H](Cc1c[nH]cn1)NC(=O)CNC(=O)[C@H](Cc1ccc(O)cc1)NC(=O)[C@@H](NC(=O)CNC(=O)[C@H](Cc1c[nH]cn1)NC(=O)CNC(=O)[C@H](Cc1ccc(O)cc1)NC(=O)[C@@H](NC(=O)CNC(=O)[C@H](Cc1c[nH]cn1)NC(=O)CN)C(C)C)C(C)C)C(=O)NCC(=O)N[C@@H](Cc1c[nH]cn1)C(=O)NCC(=O)N1CCC[C@H]1C(=O)N[C@@H](Cc1ccc(O)cc1)C(=O)NCC(=O)N[C@@H](Cc1c[nH]cn1)C(=O)NCC(=O)N[C@@H](CC(C)C)C(=O)N[C@@H](Cc1ccc(O)cc1)C(=O)N[C@@H](Cc1c[nH]c2ccccc12)C(=O)O [HBpep-SA] (H-GHGVYGHGVYGHGPYK(X2)GHGPYGHGLYW-OH)
pH at which the peptide phase separates [1]: 6.5 pH | luciferase mRNA transfection efficiency (HepG2 cells): higher than PEl and lipofectamine 3000, but slightly lower than lipofectamine 2000 | FITC-insulin release rate in the presence of DTT [2]: increased significantly

Source: patent publication US20230279061A1, “ISOLATED PEPTIDE FOR A PEPTIDE COACERVATE, AND METHODS OF USE THEREOF” (NANYANG TECHNOLOGICAL UNIVERSITY, priority 2020, published 2023)
